Results taken from patent US6544976B1, “Neurotrophic 2-azetidinecarboxylic acid derivatives, and related compositions and methods” (Ortho-McNeil Pharmaceutical, Inc., priority 1999, dated 2003).
Values joined by “and” are separate entries in the source; they are usually repeats but may differ in a detail not shown here. Equal entries are not always repeated. The name of at least one read-out is uncertain.

system: Primary Rat Hippocampal Cells; assay: Neurite outgrowth assay (MAP-2 immunofluorescence) in primary rat hippocampal cells; type: cell-based; details: MAP-2 fluorescence, active if greater than mean DMSO-treated control on same plate, NA = Not active
Description: Hippocampal cells are dissected from the brains of embryonic day 18 rat pups and dissociated with trypsin (1 mg/mL) and trituration. Cells are seeded at 30,000 cells/well in 96-well plates filled with 100 μL MEM and 10%FBS. At 7 days in culture, cells are fixed with 4% paraformaldehyde and immunofluorescence is performed.
Cultures are incubated with normal horse serum (1:50; Vector Labs) for about 20 min, rinsed and then incubated with primary antibody, microtubule associated-protein 2 (anti-mouse MAP-2; 1:1000; Chemicon) for about 2 h at about RT. Following primary antibody, cultures are rinsed and incubated with fluorescein anti-mouse IgG (rat absorbed; 1:50; Vector Labs) for about 1 h. After fluorescein incubation, the cultures are rinsed and read in PBS on a fluorescent plate reader (excitation: 485 nm; emission: 530 nm). A compound is regarded as active if the neurite outgrowth response is greater than the mean DMSO-treated control response on the same plate. The response to test compound is reported as percent of DMSO-treated control (absent the percentage sign). The signal-to-noise separation is consistent: the fluorescence from DMSO control wells is at least two-fold greater than blank wells.

SMILES	Rat Hippocampal Cell Response
CCC(C)(C)C(=O)C(=O)N1CC[C@H]1C(=O)OCCCc1cccnc1 [Compound 1, (2S)-[3-(3-Pyridyl)1-propyl]-1-(1,2-dioxo-3,3-dimethylpentyl)azetidine-2-carboxylate]	150% of DMSO-treated control and 127% of DMSO-treated control and 115% of DMSO-treated control
CCC(C)(C)C(=O)C(=O)N1CC[C@H]1C(=O)OC(C)(C)CCc1cccnc1 [Compound 2, (2S)-[3-(3-Pyridyl)-1,1-dimethyl-1-propyl]-1-(1,2-dioxo-3,3-dimethylpentyl)azetidine-2-dicarboxylate]	108% of DMSO-treated control and 136% of DMSO-treated control
O=C(OCCCc1cccnc1)[C@@H]1CCN1S(=O)(=O)Cc1ccccc1 [Compound 8, (2S)-[3-(3-Pyridyl)-1-propyl]-1-(α-toluenesulfonyl)azetidine-2-carboxylate]	182% of DMSO-treated control and 110% of DMSO-treated control and 153% of DMSO-treated control
